Reference: paper PMC9241034
No constants are given. Whether binding was seen depends on the method and setting. In cells and extracts the contact can be indirect. Some entries that bind do so weakly or less than the wild type. For some assays here: Sequences can lack the tags named with a protein.

By UniProt entry, the sequences of proteins in these tests, tags left out.
UniProt P52701: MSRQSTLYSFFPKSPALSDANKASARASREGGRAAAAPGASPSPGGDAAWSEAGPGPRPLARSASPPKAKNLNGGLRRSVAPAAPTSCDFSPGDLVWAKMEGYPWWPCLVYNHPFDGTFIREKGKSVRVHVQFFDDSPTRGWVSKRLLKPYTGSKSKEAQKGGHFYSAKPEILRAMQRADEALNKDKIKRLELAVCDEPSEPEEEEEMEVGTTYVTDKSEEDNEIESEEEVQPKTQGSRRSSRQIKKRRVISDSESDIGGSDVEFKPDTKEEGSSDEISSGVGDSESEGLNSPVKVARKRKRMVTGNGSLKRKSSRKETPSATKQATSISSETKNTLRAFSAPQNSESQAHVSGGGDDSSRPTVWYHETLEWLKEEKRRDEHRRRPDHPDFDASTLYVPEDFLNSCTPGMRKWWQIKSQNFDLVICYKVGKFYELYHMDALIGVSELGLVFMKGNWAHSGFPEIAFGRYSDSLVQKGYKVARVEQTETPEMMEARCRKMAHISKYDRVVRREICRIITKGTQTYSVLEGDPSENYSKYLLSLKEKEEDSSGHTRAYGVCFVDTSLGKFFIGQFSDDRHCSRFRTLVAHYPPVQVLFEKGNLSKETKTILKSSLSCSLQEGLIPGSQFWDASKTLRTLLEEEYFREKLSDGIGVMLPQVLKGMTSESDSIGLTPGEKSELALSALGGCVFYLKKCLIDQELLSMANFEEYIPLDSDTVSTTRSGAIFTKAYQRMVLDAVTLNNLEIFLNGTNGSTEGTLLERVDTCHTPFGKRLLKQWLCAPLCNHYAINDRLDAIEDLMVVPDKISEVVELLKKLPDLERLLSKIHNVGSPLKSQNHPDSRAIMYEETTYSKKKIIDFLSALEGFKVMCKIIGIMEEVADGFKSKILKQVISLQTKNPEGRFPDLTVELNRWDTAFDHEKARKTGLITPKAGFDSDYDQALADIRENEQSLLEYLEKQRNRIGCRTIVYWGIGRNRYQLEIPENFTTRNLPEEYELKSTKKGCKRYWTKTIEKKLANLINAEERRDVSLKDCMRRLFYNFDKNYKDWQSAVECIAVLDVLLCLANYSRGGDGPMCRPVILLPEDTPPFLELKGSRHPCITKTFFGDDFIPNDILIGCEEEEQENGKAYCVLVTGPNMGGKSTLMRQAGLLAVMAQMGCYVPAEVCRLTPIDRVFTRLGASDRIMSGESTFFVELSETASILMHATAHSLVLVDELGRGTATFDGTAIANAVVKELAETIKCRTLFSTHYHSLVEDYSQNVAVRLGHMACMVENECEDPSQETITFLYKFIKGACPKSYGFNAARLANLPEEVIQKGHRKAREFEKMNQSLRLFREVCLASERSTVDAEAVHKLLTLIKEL

Key:
[1] = target: T1, GST-tagged SETD2 SET domain (aa 1418-1714), made in E. coli (human) (UniProt Q9BYW2); experiment: pull-down; GST-SETD2 fragments from bacterial lysates held on GST beads, incubated with HeLa cell lysate in RIPA buffer; Western blot; only the target purified
T1 sequence: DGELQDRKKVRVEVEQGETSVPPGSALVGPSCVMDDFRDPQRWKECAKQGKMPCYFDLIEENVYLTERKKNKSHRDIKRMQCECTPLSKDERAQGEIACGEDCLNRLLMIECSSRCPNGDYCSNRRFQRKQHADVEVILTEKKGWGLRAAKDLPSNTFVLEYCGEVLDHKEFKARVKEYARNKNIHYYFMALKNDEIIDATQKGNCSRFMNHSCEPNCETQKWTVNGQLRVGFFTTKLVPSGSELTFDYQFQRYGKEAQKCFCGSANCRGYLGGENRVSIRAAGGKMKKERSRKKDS

[2] = target: C-terminal FLAG-tagged SETD2 (FLAG knock-in HeLa cells) (human (endogenous in HeLa)) (UniProt Q9BYW2); experiment: co-IP; anti-Flag M2 affinity gel with lysates of FLAG-KI HeLa cells in RIPA buffer, overnight at 4 °C; with or without H2O2 treatment

binding [1]: binds
binding [2]: binds
Substance: MSH6 (from UniProt P52701 1-1360)
